Laboratory results reported in US20070154905A1.
Results are given in words; binding and its absence hold for the method and conditions named. For some of these results: In cells and extracts the contact can be indirect. Some binding calls cover weakened binding; strength is not graded here. For some of these results: Where a sequence is shown, tags or fusion partners need not be part of it.

Protein sequences, listed by entry. Tags and fused reporters are not part of them. Lines headed by an entry give the natural chain unless they say otherwise; changes in a name come on top.
UniProt Q14790: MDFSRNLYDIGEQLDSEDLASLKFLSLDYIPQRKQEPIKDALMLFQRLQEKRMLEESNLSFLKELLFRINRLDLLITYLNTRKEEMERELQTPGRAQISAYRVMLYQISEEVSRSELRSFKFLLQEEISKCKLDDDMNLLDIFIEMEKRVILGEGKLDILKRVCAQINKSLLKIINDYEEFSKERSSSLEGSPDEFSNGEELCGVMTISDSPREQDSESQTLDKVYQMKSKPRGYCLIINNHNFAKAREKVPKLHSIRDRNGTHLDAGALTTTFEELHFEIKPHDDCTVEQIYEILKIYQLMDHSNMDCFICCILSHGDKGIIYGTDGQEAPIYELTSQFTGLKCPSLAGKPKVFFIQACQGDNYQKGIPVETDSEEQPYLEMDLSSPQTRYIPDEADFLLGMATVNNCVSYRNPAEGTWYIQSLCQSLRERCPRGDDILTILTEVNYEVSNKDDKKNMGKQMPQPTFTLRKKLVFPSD

Tests used:
[1] = molecular target: T1, MORT-1 protein (full-length) (human); experiment: yeast two-hybrid
T1 sequence: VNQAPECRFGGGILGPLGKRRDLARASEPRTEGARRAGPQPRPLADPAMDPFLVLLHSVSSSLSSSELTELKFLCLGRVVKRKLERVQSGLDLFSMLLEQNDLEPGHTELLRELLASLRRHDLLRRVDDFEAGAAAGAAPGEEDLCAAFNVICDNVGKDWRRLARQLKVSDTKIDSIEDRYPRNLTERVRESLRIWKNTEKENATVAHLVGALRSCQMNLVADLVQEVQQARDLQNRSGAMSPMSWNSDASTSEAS

[2] = molecular target: T2, MORT1 fused at its N terminus to the HA epitope (human); experiment: co-immunoprecipitation of 35S-labelled FLAG- and HA-tagged proteins from HeLa cells, SDS-PAGE and autoradiography
T2 sequence: T1 sequence

[3] = molecular target: T1, MORT-1 protein (full-length) (human); experiment: co-immunoprecipitation from 293-EBNA cell lysates

| Substance | binding [1] | binding [2] | binding [3] |
| --- | --- | --- | --- |
| MACHα1 (from UniProt Q14790 1-479) (enzyme) | binds |  |  |
| MACHα1 fused at its N-terminus to the FLAG octapeptide (from UniProt Q14790 1-479) (enzyme) |  | binds |  |
| MACHα1 mutant in which the catalytic cysteine Cys360 is replaced by Ser (from UniProt Q14790 1-479) (enzyme) | binds |  | binds |
